Measured values published in publication PMC3735459.
Results are given in words; binding and its absence hold for the method and conditions named. Binding seen in cells or lysates may run through a third protein. Some binding calls cover weakened binding; strength is not graded here.

Molecular target: T1, endogenous Hippo (Hpo) of S2 cells (Drosophila melanogaster (endogenous in S2 cells)) (UniProt Q8T0S6)
T1 sequence: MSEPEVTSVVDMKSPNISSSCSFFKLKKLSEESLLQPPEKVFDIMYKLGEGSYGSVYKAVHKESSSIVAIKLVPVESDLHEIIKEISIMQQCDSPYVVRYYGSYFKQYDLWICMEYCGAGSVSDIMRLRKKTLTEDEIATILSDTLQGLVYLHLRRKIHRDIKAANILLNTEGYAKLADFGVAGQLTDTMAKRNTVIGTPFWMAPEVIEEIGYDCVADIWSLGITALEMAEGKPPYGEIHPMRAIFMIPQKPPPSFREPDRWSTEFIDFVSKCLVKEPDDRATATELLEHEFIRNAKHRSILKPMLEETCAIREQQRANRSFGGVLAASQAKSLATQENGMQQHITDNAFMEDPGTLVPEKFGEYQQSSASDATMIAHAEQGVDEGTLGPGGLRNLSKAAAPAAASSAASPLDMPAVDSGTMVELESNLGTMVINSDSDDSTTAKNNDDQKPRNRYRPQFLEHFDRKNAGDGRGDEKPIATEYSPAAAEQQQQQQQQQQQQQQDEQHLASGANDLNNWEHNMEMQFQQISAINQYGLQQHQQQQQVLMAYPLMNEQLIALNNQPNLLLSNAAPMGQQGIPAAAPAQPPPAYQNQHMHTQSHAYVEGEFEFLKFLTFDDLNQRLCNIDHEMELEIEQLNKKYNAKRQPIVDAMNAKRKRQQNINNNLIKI
Experiment: co-IP; S2 cells transfected with Sav, with or without Par-1 or Par-1-KD; interaction of Sav with endogenous Hpo tested by immunoprecipitation (Figure 6C)

B1: Salvador (Sav), transfected (protein, UniProt Q9VCR6 1-608)
chain: MNYLTILLCNRKPTMLSRRNKEKSQHKEGVVGKYMKKDTPPDISVINVWSDQRAKKKSLQRCASTSPSCEFHPRSSSTSRNTYSCTDSQPDYYHARRAQSQMPLQQHSHSHPHSLPHPSHPHVRSHPPLPPHQFRASSNQLSQNSSNYVNFEQIERMRRQQSSPLLQTTSSPAPGAGGFQRSYSTTQRQHHPHLGGDSYDADQGLLSASYANMLQLPQRPHSPAHYAVPPQQQQHPQIHQQHASTPFGSTLRFDRAAMSIRERQPRYQPTSSPMQQQQQQQQQQQQQLQHTQLAAHLGGSYSSDSYPIYENPSRVISMRATQSQRSESPIYSNTTASSATLAVVPQHHHQGHLAVPSGSGGGSLSGSGRGGSSGSVRGASTSVQSLYVPPRTPPSAVAGAGGSANGSLQKVPSQQSLTEPEELPLPPGWATQYTLHGRKYYIDHNAHTTHWNHPLEREGLPVGWRRVVSKMHGTYYENQYTGQSQRQHPCLTSYYVYTTSAEPPKAIRPEASLYAPPTHTHNALVPANPYLLEEIPKWLAVYSEADSSKDHLLQFNMFSLPELEGFDSMLVRLFKQELGTIVGFYERYRRALILEKNRRAGQNQNQNQ
- binding: binds
